Taken from: PubChem BioAssay AID1259274 (Sanger Institute, 2017)
Purpose: 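siRNA screen of kinases for partners that act in synergy with targeted drugs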 (primary screen). Cell system: human RKO colorectal cancer cells. Reagent: siRNA pool against human genes. Conditions: anchor drugs BYL719 at 1 µM, cetuximab at 5 µg/ml or trametinib at 10 nM; DMSO vehicle as the no-drug arm. Measurement: 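Viability as fraction of non-targeting pool 2 control, averaged across replicates, robust z-score for single knock-down, and a combination synergy score per anchor drug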. Scale: viability z-score, siRNA alone: higher = more viable cells; low values mean essential gene. Hit rule: 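a single knock-down scoring under -3 on the robust z-score, meaning fewer cells, counts as essential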. Calls: active = essential when knocked down alone; inactive = no change alone.
In all, the deposit lists 794 reagents; shown is a random part of them. Over the whole deposit, 11 (1.4%) were called active. 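Calls rest on knock-down without drug only; synergy scores with anchor drugs were not used for the essential call.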 Entries without a mark were called inactive. Further read-outs or replicates are left out here. Not stated in the record: the amount of reagent, the time to read-out.

The opening 4 entries as a preview:
| Target gene | viability z-score, siRNA alone |
| --- | --- |
| PIKFYVE (phosphoinositide kinase, FYVE-type zinc finger containing) | -0.327 |
| FER (FER tyrosine kinase) | -0.0122 |
| LRRK2 (leucine rich repeat kinase 2) | 0.83 |
| LMTK3 (lemur tail kinase 3) | 0.039 |

Main list, repeating the preview:
| Target gene | viability z-score, siRNA alone |
| --- | --- |
| PIKFYVE (phosphoinositide kinase, FYVE-type zinc finger containing) | -0.327 |
| FER (FER tyrosine kinase) | -0.0122 |
| LRRK2 (leucine rich repeat kinase 2) | 0.83 |
| LMTK3 (lemur tail kinase 3) | 0.039 |
| DYRK1B | 0.0583 |
| RBKS (ribokinase) | -0.169 |
| CAMK2A (calcium/calmodulin dependent protein kinase II alpha) | 1.19 |
| EPHB3 (EPH receptor B3) | 0.666 |
| ITPKA (inositol-trisphosphate 3-kinase A) | 1.19 |
| SMC1A (structural maintenance of chromosomes 1A) | -0.353 |
| ACVR1C (activin A receptor type 1C) | 0.404 |
| BCR (BCR activator of RhoGEF and GTPase) | -1.48 |
| ACVRL1 (activin A receptor like type 1) | -0.57 |
| KIT (KIT proto-oncogene, receptor tyrosine kinase) | -1.26 |
| ABL1 (ABL proto-oncogene 1, non-receptor tyrosine kinase) | 0.664 |
| MOK (MOK protein kinase) | -1.32 |
| CDK4 (cyclin dependent kinase 4) | 0.332 |
| DGUOK (deoxyguanosine kinase) | 0.169 |
| GK (glycerol kinase) | 0.0388 |
| EPHB4 (EPH receptor B4) | 0.439 |
| GNAS (GNAS complex locus) | 0.0339 |
| GNE | -0.811 |
| NTN4 (netrin 4) | -0.389 |
| GRK1 (G protein-coupled receptor kinase 1) | 1.19 |
| TEX14 (testis expressed 14, intercellular bridge forming factor) | 1.19 |
| COASY (Coenzyme A synthase) | -1.73 |
| ARID1A (AT-rich interaction domain 1A) | -0.578 |
| PCK2 (phosphoenolpyruvate carboxykinase 2, mitochondrial) | 1.07 |
| NRAS (NRAS proto-oncogene, GTPase) | 0.763 |
| NUP62 (nucleoporin 62) | -0.923 |
| KCNH2 (potassium voltage-gated channel subfamily H member 2) | -0.693 |
| AK3 (adenylate kinase 3) | 1.02 |
| XYLB (xylulokinase) | -0.673 |
| RELA (RELA proto-oncogene, NF-kB subunit) | -0.473 |
